Reference: paper PMC5703960
These are yes or no findings as the source states them, for the method shown. In cells and extracts the contact can be indirect. Some binding calls cover weakened binding; strength is not graded here.

By UniProt entry, the sequences of proteins in these tests, tags left out.
UniProt Q16665: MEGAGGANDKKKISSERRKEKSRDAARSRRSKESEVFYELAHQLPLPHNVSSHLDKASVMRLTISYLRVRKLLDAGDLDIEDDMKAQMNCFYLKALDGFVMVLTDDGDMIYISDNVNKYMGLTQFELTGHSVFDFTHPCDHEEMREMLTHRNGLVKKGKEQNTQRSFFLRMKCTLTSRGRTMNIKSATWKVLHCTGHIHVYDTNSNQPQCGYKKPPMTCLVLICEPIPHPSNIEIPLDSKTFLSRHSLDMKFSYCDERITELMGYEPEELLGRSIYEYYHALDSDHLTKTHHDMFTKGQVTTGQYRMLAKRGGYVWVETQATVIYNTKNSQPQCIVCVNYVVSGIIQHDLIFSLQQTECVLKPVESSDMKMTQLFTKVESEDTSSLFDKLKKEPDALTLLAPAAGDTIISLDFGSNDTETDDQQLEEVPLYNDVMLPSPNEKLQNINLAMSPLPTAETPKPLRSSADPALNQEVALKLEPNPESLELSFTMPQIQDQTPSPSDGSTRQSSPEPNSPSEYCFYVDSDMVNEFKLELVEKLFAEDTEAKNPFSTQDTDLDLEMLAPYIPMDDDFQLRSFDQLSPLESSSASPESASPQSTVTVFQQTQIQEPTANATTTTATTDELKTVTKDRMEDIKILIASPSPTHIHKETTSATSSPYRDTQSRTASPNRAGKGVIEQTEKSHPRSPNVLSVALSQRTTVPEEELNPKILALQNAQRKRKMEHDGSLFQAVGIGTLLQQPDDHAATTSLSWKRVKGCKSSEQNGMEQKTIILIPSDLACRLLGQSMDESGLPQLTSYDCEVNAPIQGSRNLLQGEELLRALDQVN

Key:
[1] = target: Myc-tagged Parkin (pLPCX-Myc-Parkin), wild type (human) (UniProt O60260); test: co-IP; MCF7 cells expressing Myc-Parkin and HA-HIF-1α (WT or mutants); anti-Myc (9E10) or anti-HA agarose beads (20 µl), western blot
[2] = target: HA-tagged HIF-1α (pLHCX-HA-HIF-1α), wild type (human) (UniProt Q16665); test: as above
[3] = target: endogenous Parkin (human (endogenous in MCF7, T47D, MCF10A)) (UniProt O60260); test: co-IP; endogenous proteins in MCF7, T47D and MCF10A cells; anti-Parkin antibody (5 µg) and anti-HIF-1α antibody (5 µg), mouse IgG as negative control; Parkin shRNA knock-down in MCF7 as negative control

Substance: HA-tagged HIF-1α (pLHCX-HA-HIF-1α), wild type (from UniProt Q16665 1-826)
- binding [1]: binds

Substance: Myc-tagged Parkin (pLPCX-Myc-Parkin), wild type (from UniProt O60260 1-465) (enzyme)
- binding [2]: binds

Substance: endogenous HIF-1α (from UniProt Q16665 1-826)
- binding [3]: binds
